Experimental data published in the supplement of paper PMC10849652.
The other results are listed elsewhere or left out.

Chains of the proteins cited; added tags and fusions are not shown. Lines headed by an entry give the natural chain unless they say otherwise; changes in a name come on top.
UniProt O14974: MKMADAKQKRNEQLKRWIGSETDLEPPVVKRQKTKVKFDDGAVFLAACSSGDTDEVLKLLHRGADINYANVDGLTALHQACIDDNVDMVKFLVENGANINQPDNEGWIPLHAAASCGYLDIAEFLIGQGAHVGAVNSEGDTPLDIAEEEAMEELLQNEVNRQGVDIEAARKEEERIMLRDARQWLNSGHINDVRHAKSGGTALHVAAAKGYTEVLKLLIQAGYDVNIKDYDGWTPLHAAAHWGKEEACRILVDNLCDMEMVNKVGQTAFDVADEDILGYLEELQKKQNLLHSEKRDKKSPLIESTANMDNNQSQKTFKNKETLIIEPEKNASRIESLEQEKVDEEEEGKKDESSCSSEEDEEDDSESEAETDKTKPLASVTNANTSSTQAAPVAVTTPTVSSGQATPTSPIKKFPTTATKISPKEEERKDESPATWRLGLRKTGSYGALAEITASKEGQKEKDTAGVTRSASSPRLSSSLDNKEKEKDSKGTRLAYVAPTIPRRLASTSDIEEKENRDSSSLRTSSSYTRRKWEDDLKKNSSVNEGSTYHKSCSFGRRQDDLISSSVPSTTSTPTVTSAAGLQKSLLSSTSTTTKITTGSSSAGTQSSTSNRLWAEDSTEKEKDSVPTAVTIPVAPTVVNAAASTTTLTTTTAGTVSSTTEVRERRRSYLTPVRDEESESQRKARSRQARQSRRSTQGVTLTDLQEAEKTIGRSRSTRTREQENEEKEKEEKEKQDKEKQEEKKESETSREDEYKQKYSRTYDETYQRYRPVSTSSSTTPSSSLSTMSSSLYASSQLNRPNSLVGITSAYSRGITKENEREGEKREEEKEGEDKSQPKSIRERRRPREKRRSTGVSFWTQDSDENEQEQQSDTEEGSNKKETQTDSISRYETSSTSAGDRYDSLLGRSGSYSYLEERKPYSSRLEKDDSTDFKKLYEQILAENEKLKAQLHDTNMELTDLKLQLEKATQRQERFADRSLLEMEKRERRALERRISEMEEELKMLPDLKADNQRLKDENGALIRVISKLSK
UniProt Q99873, whole entry, looked up: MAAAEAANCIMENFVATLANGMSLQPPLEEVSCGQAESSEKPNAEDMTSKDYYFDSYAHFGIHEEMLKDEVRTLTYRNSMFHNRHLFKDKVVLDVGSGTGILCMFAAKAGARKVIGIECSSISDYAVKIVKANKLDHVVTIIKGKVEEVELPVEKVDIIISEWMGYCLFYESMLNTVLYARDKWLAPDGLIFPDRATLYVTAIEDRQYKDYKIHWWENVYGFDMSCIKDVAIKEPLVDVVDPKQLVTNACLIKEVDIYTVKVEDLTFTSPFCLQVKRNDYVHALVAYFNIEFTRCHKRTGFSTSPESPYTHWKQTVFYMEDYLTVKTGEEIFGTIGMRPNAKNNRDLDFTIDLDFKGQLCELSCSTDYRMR
UniProt Q9H875: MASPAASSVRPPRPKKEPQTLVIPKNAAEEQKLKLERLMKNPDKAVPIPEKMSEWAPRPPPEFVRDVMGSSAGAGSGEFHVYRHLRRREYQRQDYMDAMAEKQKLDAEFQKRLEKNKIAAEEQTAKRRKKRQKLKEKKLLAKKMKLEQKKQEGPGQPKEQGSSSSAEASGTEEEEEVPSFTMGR
UniProt P62136, whole entry, looked up: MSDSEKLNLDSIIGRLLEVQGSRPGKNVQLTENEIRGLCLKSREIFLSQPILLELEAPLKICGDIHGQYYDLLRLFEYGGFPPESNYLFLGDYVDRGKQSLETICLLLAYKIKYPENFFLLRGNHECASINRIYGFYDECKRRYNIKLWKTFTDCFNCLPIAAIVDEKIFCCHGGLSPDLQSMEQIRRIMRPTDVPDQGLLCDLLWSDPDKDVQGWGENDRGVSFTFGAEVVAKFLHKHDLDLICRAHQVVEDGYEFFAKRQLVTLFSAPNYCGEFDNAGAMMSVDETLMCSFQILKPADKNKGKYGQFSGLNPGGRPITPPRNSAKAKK
UniProt Q92733: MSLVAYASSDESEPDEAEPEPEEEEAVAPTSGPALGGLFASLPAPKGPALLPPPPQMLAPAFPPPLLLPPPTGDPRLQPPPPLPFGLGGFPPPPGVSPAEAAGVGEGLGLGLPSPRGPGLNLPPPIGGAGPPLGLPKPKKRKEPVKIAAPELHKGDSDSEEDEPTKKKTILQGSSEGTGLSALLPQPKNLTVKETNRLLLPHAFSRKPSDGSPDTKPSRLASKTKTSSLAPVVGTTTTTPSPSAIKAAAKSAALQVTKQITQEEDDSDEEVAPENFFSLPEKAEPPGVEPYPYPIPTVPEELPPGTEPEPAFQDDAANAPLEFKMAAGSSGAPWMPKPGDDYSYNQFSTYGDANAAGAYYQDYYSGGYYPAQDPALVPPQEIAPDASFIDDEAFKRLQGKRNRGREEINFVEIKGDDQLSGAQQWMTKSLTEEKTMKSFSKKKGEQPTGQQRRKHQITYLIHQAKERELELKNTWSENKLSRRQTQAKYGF
UniProt Q14738, whole entry, looked up: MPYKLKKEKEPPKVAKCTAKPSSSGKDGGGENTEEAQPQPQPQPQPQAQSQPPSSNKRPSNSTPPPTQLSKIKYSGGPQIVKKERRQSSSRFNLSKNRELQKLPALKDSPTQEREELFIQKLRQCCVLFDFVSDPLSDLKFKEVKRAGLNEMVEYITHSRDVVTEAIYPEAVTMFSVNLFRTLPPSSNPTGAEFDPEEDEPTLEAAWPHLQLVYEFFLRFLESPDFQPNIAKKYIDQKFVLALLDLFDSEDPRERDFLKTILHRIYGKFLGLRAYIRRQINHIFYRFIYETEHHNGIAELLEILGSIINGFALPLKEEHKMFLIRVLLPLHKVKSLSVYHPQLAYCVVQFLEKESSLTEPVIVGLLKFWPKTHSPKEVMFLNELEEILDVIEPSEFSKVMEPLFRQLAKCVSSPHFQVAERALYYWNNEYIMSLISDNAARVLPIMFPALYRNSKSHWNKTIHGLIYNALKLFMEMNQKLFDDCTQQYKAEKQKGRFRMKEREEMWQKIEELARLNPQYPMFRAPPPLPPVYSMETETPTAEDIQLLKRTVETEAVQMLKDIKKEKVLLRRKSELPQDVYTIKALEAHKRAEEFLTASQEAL
UniProt Q9ULR3: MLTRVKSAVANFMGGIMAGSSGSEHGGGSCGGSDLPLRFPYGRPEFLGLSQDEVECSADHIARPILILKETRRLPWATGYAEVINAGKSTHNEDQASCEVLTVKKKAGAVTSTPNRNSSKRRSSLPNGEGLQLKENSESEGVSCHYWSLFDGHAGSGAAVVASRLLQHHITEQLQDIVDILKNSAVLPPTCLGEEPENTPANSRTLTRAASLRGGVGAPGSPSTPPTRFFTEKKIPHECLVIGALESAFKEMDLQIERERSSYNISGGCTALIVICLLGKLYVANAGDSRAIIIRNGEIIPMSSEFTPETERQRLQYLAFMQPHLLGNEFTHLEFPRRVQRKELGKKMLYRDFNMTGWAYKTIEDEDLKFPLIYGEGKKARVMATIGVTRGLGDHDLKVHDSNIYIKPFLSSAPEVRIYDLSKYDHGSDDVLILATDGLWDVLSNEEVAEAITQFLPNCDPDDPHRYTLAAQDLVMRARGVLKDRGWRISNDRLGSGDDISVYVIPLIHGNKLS
UniProt P54619: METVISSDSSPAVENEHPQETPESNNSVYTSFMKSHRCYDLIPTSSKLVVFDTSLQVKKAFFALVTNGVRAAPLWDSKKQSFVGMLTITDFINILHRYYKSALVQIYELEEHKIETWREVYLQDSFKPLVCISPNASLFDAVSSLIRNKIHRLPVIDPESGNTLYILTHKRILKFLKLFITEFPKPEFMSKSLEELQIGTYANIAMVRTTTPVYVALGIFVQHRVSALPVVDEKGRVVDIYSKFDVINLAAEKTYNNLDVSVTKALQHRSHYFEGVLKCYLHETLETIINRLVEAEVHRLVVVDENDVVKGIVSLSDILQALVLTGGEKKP
UniProt P30048: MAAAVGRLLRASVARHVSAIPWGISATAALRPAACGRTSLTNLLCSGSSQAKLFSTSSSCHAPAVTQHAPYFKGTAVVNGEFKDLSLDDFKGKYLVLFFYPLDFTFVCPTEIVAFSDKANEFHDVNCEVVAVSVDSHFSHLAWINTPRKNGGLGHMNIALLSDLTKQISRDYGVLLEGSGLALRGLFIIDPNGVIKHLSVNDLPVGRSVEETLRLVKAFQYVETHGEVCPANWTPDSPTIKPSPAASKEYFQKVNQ
UniProt O43172: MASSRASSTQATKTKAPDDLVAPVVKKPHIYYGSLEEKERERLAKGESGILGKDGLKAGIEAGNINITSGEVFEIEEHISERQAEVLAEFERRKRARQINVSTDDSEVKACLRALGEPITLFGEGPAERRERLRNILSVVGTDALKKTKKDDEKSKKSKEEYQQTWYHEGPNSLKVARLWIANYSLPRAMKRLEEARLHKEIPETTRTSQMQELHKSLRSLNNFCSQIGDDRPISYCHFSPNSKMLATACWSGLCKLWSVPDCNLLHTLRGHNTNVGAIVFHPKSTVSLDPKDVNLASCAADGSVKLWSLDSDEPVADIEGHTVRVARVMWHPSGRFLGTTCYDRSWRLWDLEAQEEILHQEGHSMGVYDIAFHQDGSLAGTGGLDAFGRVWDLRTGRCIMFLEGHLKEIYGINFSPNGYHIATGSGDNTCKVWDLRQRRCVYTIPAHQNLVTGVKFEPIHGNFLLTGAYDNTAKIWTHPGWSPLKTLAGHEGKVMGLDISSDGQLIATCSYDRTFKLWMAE
UniProt P31323, whole entry, looked up: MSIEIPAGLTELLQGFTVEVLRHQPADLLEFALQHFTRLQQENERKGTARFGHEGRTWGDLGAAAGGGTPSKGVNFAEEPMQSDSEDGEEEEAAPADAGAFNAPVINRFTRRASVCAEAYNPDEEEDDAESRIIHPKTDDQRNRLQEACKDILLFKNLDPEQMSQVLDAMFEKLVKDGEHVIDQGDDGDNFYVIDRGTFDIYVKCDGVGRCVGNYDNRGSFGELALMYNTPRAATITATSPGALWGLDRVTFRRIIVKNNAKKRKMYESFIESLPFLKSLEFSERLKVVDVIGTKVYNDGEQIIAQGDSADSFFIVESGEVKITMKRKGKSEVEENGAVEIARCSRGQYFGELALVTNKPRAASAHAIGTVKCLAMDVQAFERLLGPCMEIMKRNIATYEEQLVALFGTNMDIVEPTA
UniProt O43395: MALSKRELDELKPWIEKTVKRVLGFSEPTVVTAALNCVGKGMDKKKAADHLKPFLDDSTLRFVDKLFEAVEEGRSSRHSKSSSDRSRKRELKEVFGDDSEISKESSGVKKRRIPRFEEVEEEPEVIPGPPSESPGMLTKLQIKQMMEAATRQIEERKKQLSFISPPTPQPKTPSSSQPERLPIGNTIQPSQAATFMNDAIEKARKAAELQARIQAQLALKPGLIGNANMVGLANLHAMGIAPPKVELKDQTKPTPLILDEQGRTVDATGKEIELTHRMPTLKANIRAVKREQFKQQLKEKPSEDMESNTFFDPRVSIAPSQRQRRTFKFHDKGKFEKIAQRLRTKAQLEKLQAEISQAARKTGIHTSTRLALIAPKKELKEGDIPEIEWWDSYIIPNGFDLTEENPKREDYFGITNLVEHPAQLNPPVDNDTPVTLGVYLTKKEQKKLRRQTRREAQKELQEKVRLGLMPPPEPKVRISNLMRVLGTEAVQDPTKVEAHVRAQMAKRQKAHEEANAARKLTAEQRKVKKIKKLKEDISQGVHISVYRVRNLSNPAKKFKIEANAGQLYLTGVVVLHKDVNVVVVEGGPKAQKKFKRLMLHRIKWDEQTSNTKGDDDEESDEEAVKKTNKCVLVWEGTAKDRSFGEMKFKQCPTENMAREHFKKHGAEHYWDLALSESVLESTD
UniProt P63098, whole entry, looked up: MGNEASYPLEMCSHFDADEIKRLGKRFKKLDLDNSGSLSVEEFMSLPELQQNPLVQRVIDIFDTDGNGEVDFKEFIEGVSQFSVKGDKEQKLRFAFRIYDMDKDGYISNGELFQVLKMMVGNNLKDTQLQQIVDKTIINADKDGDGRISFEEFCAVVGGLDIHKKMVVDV

Key:
Experiment in all cases: log2 fold change, soluble protein after heating vs DMSO (PISA); higher = thermal stabilisation; K562 cells, 10 uM, 30 min; active = over 0.2 and 3.5 SD of the protein, either way, in both replicates (recomputed)
[1] = compound: CC1=C(C=C(C=C1)NC(=O)C2=CC(=CC=C2)C(C)(C)C#N)NC3=CC4=C(C=C3)N=CN(C4=O)C
Summary of the method: (§1)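 Soluble protein was quantified by TMTpro 16plex LC-MS/MS after channel sums were equalised. It was obtained as the supernatant after 21,000xg for 90 min from pooled aliquots of K562 cells (2×10^6 cells/mL, 10 μM compound, 30 min) heated for 3 min across 48°C-58°C and extracted in PBS with 0.5% NP-40 at 4°C. Thermal stability values are relative to control samples and come from duplicates. They are given as log2 fold changes.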

[2] = compound: CC1=C(C=C(C=C1)NC(=O)C2=CC(=CC=C2)N(C)C)NC(=O)C3=CC=C(C=C3)O
Summary of the method: as §1

[3] = compound: CC1=CC=C(C=C1)SC2=C3C=C(SC3=CN=C2)C(=O)N
Summary of the method: as §1

[4] = compound: CC1=NC(=CC=C1)C2=C(N=C(N2)C(C)(C)C)C3=CC4=NC=CN=C4C=C3
Summary of the method: as §1

[5] = compound: CCCCN(Cc1ccc(C(=O)NO)cc1)C(=O)Nc1ccccc1 [Nexturastat A]
Summary of the method: as §1

[6] = compound: CCCS(=O)(=O)Nc1ccc(F)c(C(=O)c2c[nH]c3ncc(-c4ccc(Cl)cc4)cc23)c1F [vemurafenib]
Summary of the method: as §1

[7] = compound: CCCS(=O)(=O)Nc1ccc(F)c(C(=O)c2c[nH]c3ncc(Cl)cc23)c1F
Summary of the method: as §1

[8] = compound: CCCc1cc(C)[nH]c(=O)c1CNC(=O)c1cc(-c2ccnc(N3CCN(C)CC3)c2)cc2c1cnn2C(C)C
Summary of the method: as §1

[9] = compound: CCN(CC)Cc1ccc2cc(COC(=O)Nc3ccc(C(=O)NO)cc3)ccc2c1 [givinostat]
Summary of the method: as §1

[10] = compound: CCN(CCCOc1ccc2c(Nc3cc(CC(=O)Nc4cccc(F)c4)[nH]n3)ncnc2c1)CCOP(=O)(O)O [barasertib]
Summary of the method: as §1

Measured: log2 fold change

PRDX6 (UniProt P30041)
inactive: [1] 0 | [2] -0.002 | [3] 0.036 | [4] 0.038 | [5] -0.151 | [6] 0.018 | [7] -0.015 | [8] -0.005 | [9] -0.021 | [10] 0.019

PPP1R12A (UniProt O14974)
inactive: [1] -0.012 | [2] -0.036 | [3] 0.046 | [4] 0.045 | [5] 0.001 | [6] 0.015 | [7] 0.073 | [8] -0.032 | [9] 0.048 | [10] 0.066

PRIM2 (UniProt P49643)
inactive: [1] -0.028 | [2] -0.018 | [3] -0.019 | [4] 0.054 | [5] 0.017 | [6] 0.054 | [7] 0.03 | [8] 0.023 | [9] 0.085 | [10] 0.08

PRMT1 (UniProt Q99873)
inactive: [1] 0.057 | [2] -0.031 | [3] 0.014 | [4] 0.051 | [5] -0.073 | [6] 0.013 | [7] 0.046 | [8] -0.083 | [9] -0.031 | [10] 0.002

PRPF19 (UniProt Q9UMS4)
inactive: [1] -0.012 | [2] 0.02 | [3] -0.011 | [4] 0.015 | [5] -0.073 | [6] -0.034 | [7] -0.028 | [8] -0.109 | [9] -0.027 | [10] -0.046

PRKRIP1 (UniProt Q9H875)
inactive: [1] 0.022 | [2] 0.023 | [3] 0.015 | [4] 0.011 | [5] -0.031 | [6] -0.042 | [7] -0.026 | [8] -0.123 | [9] -0.077 | [10] -0.033

PPP1CA (UniProt P62136)
inactive: [1] -0.024 | [2] -0.019 | [3] -0.071 | [4] 0.164 | [5] -0.09 | [6] -0.023 | [7] -0.05 | [8] 0 | [9] -0.009 | [10] 0.035

PPP2CA (UniProt P67775)
inactive: [1] -0.021 | [2] 0.132 | [3] 0.012 | [4] 0.017 | [5] -0.025 | [6] 0.053 | [7] 0.003 | [8] 0.022 | [9] -0.152 | [10] -0.024

PRRC2C isoform 7 (UniProt Q9Y520)
inactive: [1] -0.02 | [2] 0.009 | [3] -0.059 | [4] -0.079 | [5] 0.159 | [6] -0.084 | [7] -0.076 | [8] 0.085 | [9] 0.018 | [10] -0.096

PRRC1 (UniProt Q96M27)
inactive: [1] -0.03 | [2] 0.003 | [3] -0.009 | [4] 0.005 | [5] -0.05 | [6] -0.02 | [7] -0.005 | [8] -0.049 | [9] -0.008 | [10] 0.003

PRCC (UniProt Q92733)
inactive: [1] -0.065 | [2] -0.004 | [3] -0.075 | [4] 0.003 | [5] 0.011 | [6] -0.034 | [7] -0.104 | [8] -0.01 | [9] -0.012 | [10] 0.019

PPM1G (UniProt O15355)
inactive: [1] 0.087 | [2] -0.04 | [3] -0.031 | [4] 0.048 | [5] -0.053 | [6] 0.112 | [7] 0.13 | [8] 0.067 | [9] 0.17 | [10] 0.052

PPP6C isoform 3 (UniProt O00743)
inactive: [1] 0.018 | [2] 0.021 | [3] -0.036 | [4] 0.023 | [5] -0.043 | [6] -0.029 | [7] -0.033 | [8] -0.058 | [9] -0.032 | [10] -0.005

PRKACB isoform 2 (UniProt P22694)
inactive: [1] -0.014 | [2] 0.015 | [3] 0.011 | [4] 0.077 | [5] 0.059 | [6] -0.007 | [7] 0.031 | [8] -0.129 | [9] -0.024 | [10] 0.036

PRRC2A (UniProt P48634)
inactive: [1] -0.021 | [2] -0.047 | [3] -0.035 | [4] -0.101 | [5] 0.18 | [6] -0.084 | [7] -0.046 | [8] 0.053 | [9] 0.032 | [10] -0.074

PPP2R5D (UniProt Q14738)
inactive: [1] 0.062 | [2] -0.067 | [3] 0.034 | [4] 0.04 | [5] 0.009 | [6] 0.082 | [7] 0.174 | [8] 0.087 | [9] 0.014 | [10] 0.043

PPM1H (UniProt Q9ULR3)
inactive: [1] -0.071 | [2] -0.073 | [3] 0 | [4] 0.07 | [5] -0.005 | [6] -0.037 | [7] 0.003 | [8] -0.06 | [9] 0.027 | [10] 0.011

PRKAG1 isoform 3 (UniProt P54619)
inactive: [1] -0.042 | [2] -0.006 | [3] 0.007 | [4] 0.037 | [5] -0.01 | [6] 0.026 | [7] 0.002 | [8] -0.026 | [9] 0.014 | [10] 0.013

PRDX3 (UniProt P30048)
inactive: [1] 0.008 | [2] 0.009 | [3] 0 | [4] 0.068 | [5] 0.022 | [6] -0.008 | [7] -0.003 | [8] -0.014 | [9] 0.005 | [10] -0.031

PRKAB1 (UniProt Q9Y478)
inactive: [1] -0.055 | [2] 0.026 | [3] 0.022 | [4] 0.01 | [5] -0.002 | [6] 0.031 | [7] 0.017 | [8] 0.109 | [9] 0.08 | [10] 0.026

2 successive entries out of the list so far, quoted:
PPP2CA (UniProt P67775)
inactive: [1] -0.021 | [2] 0.132 | [3] 0.012 | [4] 0.017 | [5] -0.025 | [6] 0.053 | [7] 0.003 | [8] 0.022 | [9] -0.152 | [10] -0.024

PRRC2C isoform 7 (UniProt Q9Y520)
inactive: [1] -0.02 | [2] 0.009 | [3] -0.059 | [4] -0.079 | [5] 0.159 | [6] -0.084 | [7] -0.076 | [8] 0.085 | [9] 0.018 | [10] -0.096

Next records follow:

PRKCA (UniProt P17252)
inactive: [1] -0.014 | [2] -0.068 | [3] -0.016 | [4] 0.007 | [5] 0.023 | [6] -0.015 | [7] 0.012 | [8] -0.021 | [9] -0.02 | [10] 0.025

PRPF4 (UniProt O43172)
inactive: [1] -0.027 | [2] -0.049 | [3] -0.035 | [4] 0.022 | [5] 0.061 | [6] -0.022 | [7] 0.043 | [8] 0.004 | [9] 0.024 | [10] 0.005

PRMT7 (UniProt Q9NVM4)
inactive: [1] 0.056 | [2] -0.197 | [3] 0.065 | [4] -0.055 | [5] -0.003 | [6] -0.03 | [7] 0.145 | [8] -0.014 | [9] 0.042 | [10] 0.023

PPP4R3B (UniProt Q5MIZ7)
inactive: [1] 0.006 | [2] 0.014 | [3] 0.008 | [4] 0.024 | [5] -0.063 | [6] 0.017 | [7] 0.009 | [8] -0.017 | [9] 0.049 | [10] 0.029

PRKAR2B (UniProt P31323)
inactive: [1] 0.04 | [2] 0.017 | [3] 0.038 | [4] 0.022 | [5] 0.046 | [6] 0.033 | [7] 0.052 | [8] -0.014 | [9] 0 | [10] 0.047

PPP1R14A (UniProt Q96A00)
inactive: [1] -0.002 | [2] -0.04 | [3] 0.004 | [4] 0.051 | [5] -0.006 | [6] -0.005 | [7] -0.054 | [8] 0.062 | [9] -0.004 | [10] 0.013

PRPF3 (UniProt O43395)
inactive: [1] 0.05 | [2] -0.025 | [3] 0.038 | [4] 0.117 | [5] -0.087 | [6] 0.1 | [7] 0.081 | [8] -0.005 | [9] 0.086 | [10] 0.028

PPP1R14C (UniProt Q8TAE6)
inactive: [1] -0.078 | [2] 0.167 | [3] -0.084 | [4] 0.108 | [5] 0.145 | [6] -0.057 | [7] -0.328 | [8] -0.046 | [9] -0.009 | [10] -0.017

PREB (UniProt Q9HCU5)
inactive: [1] 0.034 | [2] 0.01 | [3] -0.004 | [4] -0.007 | [5] -0.037 | [6] -0.018 | [7] -0.02 | [8] 0.022 | [9] -0.053 | [10] -0.014

PPP3R1 (UniProt P63098)
inactive: [1] -0.084 | [2] -0.017 | [3] 0.02 | [4] 0.049 | [5] -0.033 | [6] 0.033 | [7] 0.016 | [8] 0.032 | [9] 0.029 | [10] -0.013
